# Test results reported in PubChem BioAssay AID330 (DTP/NCI, 2004).
# The list is a part of this screen's results and no random one: it is rich in T/C values a quarter to a half above the control, in often repeated tests (any T/C) and in doses without a T/C. Other doses and runs of a compound stand elsewhere. T/C is the treated group as % of the vehicle group. Some doses have a count of surviving animals in place of a T/C: the source holds a T/C of zero for them, seemingly a mark for toxic or unscored doses. Some doses without a T/C left all or most animals alive at the check, yet need not have been tolerated: the source hardly ever lists a survival T/C far under the control, and the zero likely stands for such cases as well. Survivors were counted at the toxicity check, usually on the fifth day, unless a day is given; later deaths do not show. Schedules are NCI's codes, taken here to give the interval after Q, in days (D) or hours (H), and the number of doses after X. Some doses were run more than once; the results are listed from low to high. Some structures stand for samples that the source files as different forms (salt, stereo form or complex); doses refer to the form tested. Additions like (4×) count equal records among those shown. For survival time, this PubChem deposit counts one and a half times the control or more as active, and values a quarter to a half above the control carry no call in these data; other NCI protocols may use other cut-offs. Some T/C values carry the count of animals alive at the toxicity check (mostly the fifth day); where none is given, no animal had died by that day.
# Test system: P388 leukemia ip, CD2F1 mice, survival T/C
# Test: NCI In Vivo Anticancer Drug Screen. Data for tumor model P388 Leukemia (intraperitoneal) in CD2F1 (CDF1) mice
# Conditions: T/C endpoint: median survival time, higher T/C = longer survival
# [1] = dose: 120.0 mg/kg/injection, schedule: Q01DX005 (ip), vehicle: saline with Tween-80
# [2] = dose: 240.0 mg/kg/injection, schedule: Q01DX005 (ip), vehicle: saline with Tween-80
# [3] = dose: 0.5 mg/kg/injection, schedule: Q01DX009 (ip), vehicle: water
# [4] = dose: 200.0 mg/kg/injection, schedule: Q01DX009 (ip), vehicle: saline with Tween-80
# [5] = dose: 100.0 mg/kg/injection, schedule: Q01DX009 (ip), vehicle: saline with Tween-80
# [6] = dose: 25.0 mg/kg/injection, schedule: Q01DX009 (ip), vehicle: saline with Tween-80
# [7] = dose: 12.5 mg/kg/injection, schedule: Q01DX009 (ip), vehicle: saline with Tween-80
smiles,measurement,setting,value
Cc1c2oc3c(C)ccc(C(=O)NC4C(=O)NC(C(C)C)C(=O)N5CCCC5C(=O)N(C)CC(=O)N(C)C(C(C)C)C(=O)OC4C)c3nc-2c(C(=O)NC2C(=O)NC(C(C)C)C(=O)N3CCC3C(=O)N(C)CC(=O)N(C)C(C(C)C)C(=O)OC2C)c(N)c1=O (stereo not drawn),T/C,"dose: 0.1 mg/kg/injection, schedule: Q01DX009 (ip), vehicle: water",142 % of control
same,survivor count,"dose: 0.2 mg/kg/injection, schedule: Q01DX009 (ip), vehicle: water",6 of 6
same,survivor count,"dose: 0.4 mg/kg/injection, schedule: Q01DX009 (ip), vehicle: water",6 of 6
same,T/C,"dose: 0.6 mg/kg/injection, schedule: Q04DX003 (ip), vehicle: saline",128 % of control
same,survivor count,"dose: 0.8 mg/kg/injection, schedule: Q01DX009 (ip), vehicle: water",0 of 6
same,T/C,"dose: 1.2 mg/kg/injection, schedule: Q04DX003 (ip), vehicle: saline",137 % of control
same,survivor count,"dose: 1.6 mg/kg/injection, schedule: Q01DX009 (ip), vehicle: water",0 of 6
same,T/C,"dose: 6.3 micrograms/kg/injection, schedule: Q01DX009 (ip), vehicle: water",149 % of control
same,T/C,"dose: 25.0 micrograms/kg/injection, schedule: Q01DX009 (ip), vehicle: saline",140 % of control
same,survivor count,"dose: 200.0 micrograms/kg/injection, schedule: Q01DX009 (ip), vehicle: water",6 of 6
same,survivor count,"dose: 417.0 micrograms/kg/injection, schedule: Q01DX009 (ip), vehicle: saline + alcohol",8 of 8
COc1cccc2c1C(=O)c1c(O)c3c(c(O)c1C2=O)C[C@@](O)(C(=O)CO)C[C@@H]3OC1CC(N)C(OC)C(C)O1 (stereo partly drawn),T/C,"dose: 0.78 mg/kg/injection, schedule: Q04DX003 (ip), vehicle: water",136 % of control
same,T/C,"dose: 1.08 mg/kg/injection, schedule: Q04DX003 (ip), vehicle: saline",127 % of control
same,T/C,"dose: 1.56 mg/kg/injection, schedule: Q04DX003 (ip), vehicle: water",130 % of control [5 of 6 alive]
same,T/C,"dose: 1.8 mg/kg/injection, schedule: Q01DX009 (ip), vehicle: saline",131 % of control
same,T/C,"dose: 1.8 mg/kg/injection, schedule: Q04DX003 (ip), vehicle: saline",130 % of control
same,survivor count,"dose: 3.0 mg/kg/injection, schedule: Q01DX009 (ip), vehicle: saline",8 of 8
same,T/C,"dose: 3.0 mg/kg/injection, schedule: Q04DX003 (ip), vehicle: saline",139 % of control
same,T/C,"dose: 6.25 mg/kg/injection, schedule: Q04DX003 (ip), vehicle: water",136 % of control
C/C(=N\NC(=S)NNC(=S)N1CCCc2ccccc21)c1ccccn1,survivor count,"dose: 400.0 mg/kg/injection, schedule: Q04DX002 (ip), vehicle: Klucel (hydroxypropylcellulose) (HPC)",4 of 6
O=C1C2C3CCC(O3)C2C(=O)N1CC#CCCl (stereo not drawn),survivor count,"dose: 30.0 mg/kg/injection, schedule: Q01DX005 (ip), vehicle: saline with Tween-80",0 of 6
same,survivor count,"dose: 60.0 mg/kg/injection, schedule: Q01DX005 (ip), vehicle: saline with Tween-80",0 of 6
same,survivor count,[1],0 of 6
same,survivor count,[2],0 of 6
CCN(CC)CCNc1c(C)ccc2cccnc12,survivor count,"dose: 100.0 mg/kg/injection, schedule: Q01DX005 (ip), vehicle: saline",1 of 5
same,survivor count,"dose: 200.0 mg/kg/injection, schedule: Q01DX005 (ip), vehicle: saline",0 of 5
CCC1=C[C@H]2CN(CCc3c([nH]c4ccccc34)[C@@](C(=O)OC)(c3cc4c(cc3OC)N(C)[C@H]3[C@@](O)(C(=O)NC)[C@H](OC(C)=O)[C@]5(CC)C=CCN6CC[C@]43[C@@H]65)C2)C1,T/C,"dose: 0.03 mg/kg/injection, schedule: Q01DX009 (ip), vehicle: water",131 % of control
same,T/C,"dose: 0.06 mg/kg/injection, schedule: Q01DX009 (ip), vehicle: water",133 and 142 % of control
same,T/C,"dose: 0.25 mg/kg/injection, schedule: Q01DX009 (ip), vehicle: water",127 % of control (2×)
same,T/C,[3],144 % of control
same,survivor count,[3],1 of 6 and 6 of 6
same,T/C,"dose: 1.0 mg/kg/injection, schedule: Q01DX001 (ip), vehicle: water",128 % of control
same,survivor count,"dose: 1.0 mg/kg/injection, schedule: Q01DX009 (ip), vehicle: water","1 of 6, 2 of 6, 5 of 6"
same,survivor count,"dose: 2.0 mg/kg/injection, schedule: Q01DX009 (ip), vehicle: water",0 of 6 (2×)
same,survivor count,"dose: 2.0 mg/kg/injection, schedule: Q04DX003 (ip), vehicle: water",6 of 6
COc1ccc(N=C(N=C(NC(=O)c2ccccc2)c2ccccc2)c2ccccc2)cc1,survivor count,[4],6 of 6
CC(=O)c1ccc2c(c1)N(CCCN1CCN(CCO)CC1)c1ccccc1S2,survivor count,"dose: 6.25 mg/kg/injection, schedule: Q01DX009 (ip), vehicle: saline",6 of 6
Nc1ccc2ccc(N)cc2c1,T/C,"dose: 400.0 mg/kg/injection, schedule: Q01DX005 (ip), vehicle: saline with Tween-80",135 % of control [5 of 6 alive]
C[n+]1ccc2ccccc2c1,survivor count,[1],2 of 6
same,survivor count,[2],0 of 6
CCCCCCCCCCCCCCCCCC(=O)Nc1ccn(C2OC(CO)C(O)C2O)c(=O)n1 (stereo not drawn),T/C,[5],126 % of control
same,survivor count,[4],6 of 6
CC(C)=NOc1ccc([N+](=O)[O-])cc1[N+](=O)[O-],survivor count,[4],2 of 6
Cc1c2c(=O)oc3ccc(Cl)cc3c2nn1-c1ccccc1,survivor count,"dose: 240.0 mg/kg/injection, schedule: Q01DX005 (ip), vehicle: Klucel (hydroxypropylcellulose) (HPC)",0 of 6
O=c1[nH]cnc2cc3[nH]ncc3cc12,survivor count,"dose: 6.0 mg/kg/injection, schedule: Q01DX005 (ip), vehicle: saline with Tween-80",5 of 6
same,survivor count,"dose: 12.5 mg/kg/injection, schedule: Q01DX005 (ip), vehicle: saline with Tween-80",6 of 6
same,survivor count,"dose: 25.0 mg/kg/injection, schedule: Q01DX005 (ip), vehicle: saline with Tween-80",6 of 6
same,survivor count,"dose: 50.0 mg/kg/injection, schedule: Q01DX005 (ip), vehicle: saline with Tween-80",6 of 6
N#C/C(=C\c1ccc(Cl)cc1)c1ccccc1,survivor count,"dose: 50.0 mg/kg/injection, schedule: Q01DX009 (ip), vehicle: saline",6 of 6
COc1cccc(/C=N/NC(=O)C2CCN(C(=S)NC3CC4C=CC3C4)CC2)c1O (stereo not drawn),survivor count,[6],5 of 6
O=C(O)CC(=O)C(C(=O)O)C(CCc1ccccc1)C(C(=O)O)C(=O)CC(=O)O (stereo not drawn),survivor count,[7],6 of 6
same,survivor count,[6],6 of 6
same,survivor count,[5],6 of 6
c1ccc(C2(c3ccccc3)CN3CCSC3=N2)cc1,survivor count,"dose: 400.0 mg/kg/injection, schedule: Q04DX003 (ip), vehicle: saline with Tween-80",1 of 6
COc1cc(OC)c(/C=C/c2c3ccccc3cc[n+]2C)c(OC)c1,T/C,"dose: 0.78 mg/kg/injection, schedule: Q01DX009 (ip), vehicle: saline with Tween-80",127 % of control
same,T/C,"dose: 1.56 mg/kg/injection, schedule: Q01DX009 (ip), vehicle: saline with Tween-80",131 and 134 % of control [5 of 6 alive]
same,survivor count,"dose: 3.13 mg/kg/injection, schedule: Q01DX009 (ip), vehicle: saline with Tween-80",2 of 6
same,survivor count,"dose: 6.25 mg/kg/injection, schedule: Q01DX009 (ip), vehicle: saline with Tween-80",0 of 6
same,survivor count,[7],0 of 6
same,survivor count,[6],0 of 6
C=C(C)C1NC(=O)C(C(O)c2cc(O)c(O)c(Cl)c2)N(C)C(=O)/C(=C/C(=O)O)NC(=O)/C(=C(\C)CC)NC(=O)C2C=CCN2C(=O)C(C(C)(O)CC)NC1=O (stereo not drawn),survivor count,"dose: 5.0 mg/kg/injection, schedule: Q01DX005 (ip), vehicle: Klucel (hydroxypropylcellulose) (HPC)",6 of 6
COc1ccc(COCc2ccc(OC)c(O)c2)cc1O,survivor count,[4],4 of 6
CCSc1nc(Cl)cc(Sc2nc(N)nc3nc[nH]c23)n1,survivor count,[4],6 of 6
same,survivor count,"dose: 300.0 mg/kg/injection, schedule: Q01DX009 (ip), vehicle: saline with Tween-80",4 of 6
COC1=CC(=N/Br)/C=CC/1=N/Br,T/C,"dose: 50.0 mg/kg/injection, schedule: Q01DX005 (ip), vehicle: saline",126 % of control
same,survivor count,"dose: 400.0 mg/kg/injection, schedule: Q01DX005 (ip), vehicle: saline",3 of 6 and 4 of 5
CC(=O)c1ccc(N=C2c3ccccc3CN2c2ccc(C(C)=O)cc2)cc1,survivor count,"dose: 200.0 mg/kg/injection, schedule: Q01DX005 (ip), vehicle: saline with Tween-80",6 of 6
CC(=O)OCCSSCCOC(C)=O,survivor count,[4],5 of 6
